This note sets out measurements from publication PMC8602850.

Chains of the proteins cited; added tags and fusions are not shown. Residues count along the entry.
UniProt P0DTC4: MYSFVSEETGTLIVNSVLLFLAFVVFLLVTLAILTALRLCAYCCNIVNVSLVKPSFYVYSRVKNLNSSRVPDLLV
UniProt Q07021, residues 74-282: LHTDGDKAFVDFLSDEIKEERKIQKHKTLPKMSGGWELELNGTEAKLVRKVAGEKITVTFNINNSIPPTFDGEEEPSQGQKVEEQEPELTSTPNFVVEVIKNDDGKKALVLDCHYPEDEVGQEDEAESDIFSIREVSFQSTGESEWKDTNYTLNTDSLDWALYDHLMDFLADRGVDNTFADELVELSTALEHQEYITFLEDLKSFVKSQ

In the test the target is SARS-CoV-2 envelope (E) protein, recombinant (SARS-CoV-2) (UniProt P0DTC4). Description: ELISA; viral proteins (2-10 µg/ml) or ghA coated on microtiter wells in carbonate buffer pH 9.6, blocked with BSA; biotinylated gC1qR (1 µg/ml in Figure 5; 0-5 µg/ml in the methods), 1 h room temp., TBST washes; AP-streptavidin and pNPP; binding enhanced with 50 µM Zn (not shown); both purified. A general note: An ELISA detects its analyte on a solid surface through an enzyme-linked reagent.

These are yes or no findings as the source states them, for the method shown. Some results given as binding are weak or reduced against the parent protein; the word gives no strength.

“gC1qR, wild type, mature recombinant (receptor for the globular heads of C1q) (from UniProt Q07021 74-282)”: the binding result is listed as “binds”.
